Data reported in the supplement of paper PMC6078165.

System: BT20
Assay: relative JC-1 red fluorescence (viability) vs pre-drug, coculture with fibroblast (fraction); higher = more viable cancer cells
Settings: 100 µM
Method: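 JC-1 labelled TNBC cells cocultured 1:1 (1,500 cells each) with CellTrace Violet stained primary or stromal fibroblasts in 384-well plates in FluoroBrite medium, treated with one of 42 anticancer drugs at 0.1, 1, 10 or 100 uM. JC-1 red fluorescence (mitochondrial integrity in cancer cells only) was read by plate reader every 8 h for 72 h. Values are normalised to each well's pre-drug value. The stock of one drug was tenfold lower, so its dose labels may be too high.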

CCN(CC)CCNC(=O)c1c(C)[nH]c(/C=C2\C(=O)Nc3ccc(F)cc32)c1C [Sunitinib]
relative JC-1 red fluorescence
Settings | 8 h | 16 h | 24 h | 32 h | 40 h | 48 h | 56 h | 64 h | 72 h
coculture fibroblast: C12385 | 0.342 | 0.167 | 0.158 | 0.123 | 0.0907 | 0.0924 | 0.0685 | 0.0527 | 0.0703
coculture fibroblast: H6013 | 0.19 | 0.135 | 0.148 | 0.11 | 0.0983 | 0.0935 | 0.0882 | 0.0766 | 0.0576
coculture fibroblast: H6019 | 0.24 | 0.175 | 0.187 | 0.153 | 0.137 | 0.137 | 0.115 | 0.105 | 0.0996
coculture fibroblast: H6076 | 0.491 | 0.337 | 0.308 | 0.302 | 0.289 | 0.269 | 0.25 | 0.236 | 0.22
coculture fibroblast: H6231 | 0.467 | 0.317 | 0.283 | 0.287 | 0.263 | 0.253 | 0.212 | 0.226 | 0.203
coculture fibroblast: HADF | 0.296 | 0.18 | 0.178 | 0.144 | 0.122 | 0.123 | 0.103 | 0.0953 | 0.0706
coculture fibroblast: HCFa | 0.33 | 0.181 | 0.185 | 0.147 | 0.128 | 0.133 | 0.123 | 0.108 | 0.0831
coculture fibroblast: HCPF | 0.427 | 0.333 | 0.324 | 0.316 | 0.306 | 0.289 | 0.274 | 0.268 | 0.244
coculture fibroblast: HHSteC | 0.261 | 0.174 | 0.188 | 0.141 | 0.117 | 0.105 | 0.0911 | 0.077 | 0.0539
coculture fibroblast: HMF | 0.374 | 0.391 | 0.397 | 0.41 | 0.403 | 0.394 | 0.387 | 0.365 | 0.325
coculture fibroblast: HPFa | 0.485 | 0.222 | 0.221 | 0.186 | 0.165 | 0.154 | 0.146 | 0.131 | 0.101
coculture fibroblast: HUF | 0.415 | 0.208 | 0.203 | 0.159 | 0.14 | 0.123 | 0.109 | 0.0941 | 0.0863
coculture fibroblast: Hs5 | 0.346 | 0.255 | 0.226 | 0.211 | 0.193 | 0.173 | 0.152 | 0.135 | 0.131
coculture fibroblast: Hs27A | 0.431 | 0.338 | 0.404 | 0.375 | 0.349 | 0.374 | 0.37 | 0.369 | 0.355
coculture fibroblast: Hs343T | 0.377 | 0.228 | 0.214 | 0.206 | 0.206 | 0.189 | 0.185 | 0.17 | 0.159
coculture fibroblast: WS1 | 0.176 | 0.14 | 0.149 | 0.114 | 0.0924 | 0.0928 | 0.0734 | 0.0829 | 0.0786

Values are relative to the signal before dosing, not to a vehicle control; the signal also falls without drug.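 Labels refer to human fibroblasts, largely primary: uterine (C12385, HUF), lung (H6013), bone (Hs27A), adrenal (HADF), skin (WS1), plus mammary HMF and breast cancer-associated Hs343T. Cancer lines are basal-like or mesenchymal-like triple-negative breast cancer. The paper counts as hits responses shifting over 3x the replicate standard deviation. The tissue of the other fibroblasts is not given here.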
